According to PubChem BioAssay AID662 (National Center for Advancing Translational Sciences (NCATS), 2007):
The other results are listed elsewhere or left out. Further columns of the screen follow, without active or inactive calls. Compounds called inactive in the main read-out are mostly missing here. The note in brackets gives the kind of curve behind each potency; many fits are weak.

experiment: Cell signaling CRE-BLA (Fsk stim); settings: CHO CRE-bla reporter (cAMP response element driving beta-lactamase), forskolin EC10, beta-lactamase ratio; measured here: 460 nm blue channel
Method in brief: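 qHTS titration format; CRE-bla CHO reporter; stimulus EC10 NKH 477, a water-soluble forskolin. Read: CCF4 460/530 nm ratio. Potency expressed as AC50 for activators or inhibitors.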

| SMILES | AC50 |
| --- | --- |
| CC1=C(C#N)C(C(F)(F)F)(C(F)(F)F)N=C(c2ccco2)N1 | 12.6 µM [falling, partial curve] |
| Cc1ccc(C(O)CN2C3=NCCN3c3ccccc32)cc1 (configuration not stated) | 5.01 µM [rising, single point] |
| COc1ccc(CC/C(=N\O)C2(O)CCCCC2)cc1 | 0.501 µM [falling, partial curve] |
| COc1ccccc1-c1nnc(SC/C(O)=C(\C#N)c2nc3ccccc3[nH]2)n1C1CCCCC1 | 25.1 µM [rising, single point] |
| COc1cc2c(cc1OC)-c1nnnn1C(C)(C)C2 | 12.6 µM [rising, partial curve] |
| Cc1ccc(S(=O)(=O)N2CCOCC2)cc1C(=O)O | 10 µM [rising, partial curve] |
| Cc1nc(Nc2ccc3c(c2)OCCO3)c2nnn(Cc3ccccc3Cl)c2n1 | 0.2 µM [falling, full curve, poor fit] |
| CCn1c(C2CC(=O)N(c3ccc(C)c(C)c3)C2)nc2ccccc21 (configuration not stated) | 7.94 µM [rising, partial curve] |
| COc1cccc(C2C(C#N)=C(N)OC3=C2C(=O)CC(c2ccco2)C3)c1OCc1ccc(F)cc1 (configuration not stated) | 3.98 µM [rising, single point] |
| COc1ccc(CCNc2nc(-c3sc(N)nc3C)cs2)cc1OC | 2.51 µM [rising, partial curve] |
| O=C(CSc1nnnn1-c1ccc2c(c1)CCC2)Nc1ccc2c(c1)OCCO2 | 6.31 µM [falling, partial curve] |
| N#CCn1c(C2CCCCC2)nc2ccccc2c1=O | 1.58 µM [rising, full curve] |
| O=C(O)c1ccccc1C(=O)OCCCCOC(=O)c1ccccc1C(=O)O | 0.251 µM [rising, full curve] |
| O=C(CNS(=O)(=O)c1ccc(Br)s1)NCc1ccc2c(c1)OCO2 | 0.02 µM [falling, full curve, poor fit] |
| CC(=O)Cc1nsc(NC(=O)c2ccc(Br)o2)n1 | 0.00398 µM [falling, full curve] |
| CCCn1c(CCC(=O)O)ccc1-c1ccc(OC)cc1 | 25.1 µM [rising, single point] |
| COc1ccc(-c2nc(C(N)=O)c3[nH]c(=O)n(-c4cccc(C)c4)c3n2)c(OC)c1 | 5.01 µM [rising, partial curve] |
| CCOC(=O)COc1ccc2cc(C(=O)OCC)c(=O)oc2c1 | 1.26 µM [rising, partial curve, poor fit] |
| CCCCCCn1c(CN2CCN(C(=O)c3ccco3)CC2)nc2c1c(=O)n(C)c(=O)n2C | 12.6 µM [rising, partial curve] |
| CN1CCN(c2ncc3nc(-c4ccc(Cl)cc4)c(=O)n(Cc4ccc(F)cc4)c3n2)CC1 | 1.58 µM [rising, full curve] |
| Nc1ccc2nc(-c3ccc(Cl)cc3)[nH]c2c1 | 10 µM [rising, partial curve] |
| Cc1ccc(C2C(C(=O)c3sc(C)nc3C)=C(O)C(=O)N2CCCN(C)C)o1 (configuration not stated) | 25.1 µM [falling, single point] |
| O=C(c1ccccc1)n1nc(-c2ccccc2)nc1NCc1ccco1 | 6.31 µM [falling, partial curve] |

Some values from above:
AC50, Cc1nc(Nc2ccc3c(c2)OCCO3)c2nnn(Cc3ccccc3Cl)c2n1 is entered as 0.2 µM [falling, full curve, poor fit]
AC50, CC1=C(C#N)C(C(F)(F)F)(C(F)(F)F)N=C(c2ccco2)N1 is entered as 12.6 µM [falling, partial curve]
AC50, CCOC(=O)COc1ccc2cc(C(=O)OCC)c(=O)oc2c1 is entered as 1.26 µM [rising, partial curve, poor fit]
AC50, Cc1ccc(S(=O)(=O)N2CCOCC2)cc1C(=O)O is entered as 10 µM [rising, partial curve]

Next part

| SMILES | AC50 |
| --- | --- |
| CCOC(=O)/C(C(C)=O)=C1\OC(=O)c2ccccc21 | 0.398 µM [falling, full curve, poor fit] |
| CN(C)c1nc(-c2cccnc2)nc2ccccc12 | 12.6 µM [rising, partial curve] |
| Cc1cccc(N(CC(=O)Nc2ccc(CC#N)cc2)S(C)(=O)=O)c1 | 2.51 µM [falling, single point] |
| O=S1(=O)C=C(Sc2nc3cc(Cl)ccc3o2)c2ccccc21 | 0.794 µM [falling, full curve] |
| CC(=O)Nc1c(OC(C)=O)ccc2c(C)cc(=O)oc12 | 12.6 µM [rising, partial curve] |
| CC1=C(C(=O)OCc2ccccc2)C(c2ccc(C3CCCCC3)cc2)NC(=O)N1CCCCCC(=O)O (configuration not stated) | 3.98 µM [rising, single point] |
| CCOC(=O)c1[nH]c2c(c1C)C(=O)CC(c1ccco1)C2 (configuration not stated) | 1.26 µM [rising, full curve] |
| CCn1c(=O)c(C(=O)CN2CCCc3ccccc32)c(N)n(Cc2ccccc2)c1=O | 3.98 µM [falling, partial curve] |
| COc1ccc(C2OC(=O)c3ccccc3S2)cc1 (configuration not stated) | 0.794 µM [rising, full curve, poor fit] |
| O=C(NCCN1CCN(c2ccccc2)CC1)c1cccn2c(=O)c3ccccc3nc12 | 3.16 µM [rising, partial curve] |
| NCCn1c(=O)c(CCc2ccccc2)nc2cncnc21 | 15.8 µM [rising, single point] |
| Cc1cc(C)c2nc(C(F)(F)F)nc(NCCCN3CCCC3=O)c2c1 | 3.98 µM [falling, single point] |
| Nc1cc(-c2nn[nH]n2)ccc1F | 0.316 µM [falling, partial curve] |
| CN1C(=O)CSc2ccc(NC(=O)N3CCN(c4ccccn4)CC3)cc21 | 0.00398 µM [falling, full curve, poor fit] |
| COc1ccc(CCNC(=O)c2noc3c2CCCC3)cc1OC | 10 µM [rising, partial curve] |
| Cc1cccc(N2CCN(C(=O)c3ccc(N4CCCC4=O)cc3)CC2C)c1 (configuration not stated) | 10 µM [rising, single point] |
| CN(C)CCCCCNCCCNC(=O)/C=N\O | 0.00316 µM [falling, full curve, poor fit] |
| CCOC(=O)N1CCN(Cc2oc(CO)cc(=O)c2O)CC1 | 0.1 µM [falling, single point] |
| CCOC(=O)C(C)Oc1cccc2c(=O)n(CC(=O)NCc3ccco3)ccc12 (configuration not stated) | 12.6 µM [rising, partial curve] |
| c1ccc(Cn2ccnc2SCc2nnc(-c3ccccc3)o2)cc1 | 15.8 µM [rising, single point] |
| Cc1ccc(-c2noc(CCC(=O)NC3CCN(Cc4ccccc4)CC3)n2)cc1 | 25.1 µM [falling, single point] |
| Oc1c(CN2CCOCC2)cc(-c2ccccc2)cc1CN1CCOCC1 | 0.1 µM [falling, full curve, poor fit] |
| CCCCCOC(=O)C1=C(C)N(C)C(=O)NC1c1cc(Br)c(O)c(OC)c1 (configuration not stated) | 10 µM [rising, partial curve] |

| SMILES | AC50 |
| --- | --- |
| N#CCCN1CCN(C(=S)c2ccc(-c3ccc(Cl)c(Cl)c3)o2)CC1 | 2.51 µM [rising, partial curve] |
| CC(=O)Nc1ccc(OCC(O)CN2CCN(c3cccc(Cl)c3)CC2)cc1 (configuration not stated) | 0.126 µM [rising, full curve, poor fit] |
| Cc1ccc(-c2cn3cccnc3n2)cc1NC(=O)c1c(-c2ccccc2Cl)noc1C | 1.58 µM [falling, partial curve] |
| COc1ccc(-c2cc(C(F)(F)F)nc(SCC(=O)NCc3ccco3)n2)cc1OC | 12.6 µM [rising, partial curve] |
| CN1CCN(CCCNC(=O)c2cc3c(-c4ccc(Cl)cc4)nn(C)c3s2)CC1 | 7.94 µM [rising, partial curve] |
| O=C(COc1ccccc1)N1CCc2ccccc2C1 | 25.1 µM [falling, single point] |
| COc1ccccc1N1CCN(Cc2ccco2)CC1 | 3.16 µM [falling, full curve] |
| COCC(=O)Nc1ccc(-c2cn3cccnc3n2)cc1 | 2.51 µM [falling, partial curve] |
| COc1ccccc1CNc1nc(-c2cccc(C#N)c2)nc2ccccc12 | 3.16 µM [rising, partial curve] |
| Cc1ccc2[nH]c(=O)c(CN(CCCO)S(=O)(=O)c3cccc4nsnc34)cc2c1 | 25.1 µM [rising, single point] |
| Cc1cc(N2CCCCC2)n2ncc(-c3ccc(Cl)cc3)c2n1 | 12.6 µM [rising, partial curve] |
| CCOC(=O)c1cc(-c2cc3ccccc3o2)n[nH]1 | 5.01 µM [falling, single point] |
| COC(=O)c1[nH]c2cc(OC)c(OC)cc2c1NC(=O)c1cccc(OC)c1 | 12.6 µM [rising, partial curve] |
| COC(=O)[C@@]1(Cc2ccc(F)cc2)[C@H]2c3cc(C(=O)N(C)C)n(CCc4ccc(O)c(O)c4)c3C[C@H]2CN1C(=O)c1ccccc1 | 10 µM [falling, single point] |
| CC1=C(\C=C/C(C)=C/C=C\C(C)=C\C(=O)O)C(C)(C)CCC1 | 0.1 µM [falling, full curve, poor fit] |
| c1ccc(CNc2ccnc(-c3cccnc3)n2)cc1 | 3.16 µM [rising, full curve] |
| c1ccc(-n2cnnc2SCc2cn3ccccc3n2)cc1 | 5.01 µM [falling, single point] |
| CC(=O)N1CCN(CCN=CC2=C(O)CC(c3ccco3)CC2=O)CC1 (configuration not stated) | 0.316 µM [rising, partial curve, poor fit] |
| CCCCN(C)c1nc(-c2ccco2)c2c(c1C#N)CC(C)(C)OC2 | 10 µM [rising, partial curve] |
| COc1cc2cc3c(N)c(C(=O)NCc4ccco4)sc3nc2cc1OC | 10 µM [rising, single point] |
| Brc1cccc(-c2nnc(SCc3nc4ccccc4[nH]3)o2)c1 | 5.01 µM [rising, partial curve] |
